From PMC6925144, “A prospective compound screening contest identified broader inhibitors for Sirtuin 1” (Scientific Reports, 2019)
The full ranking holds about 3,200 compounds; the median of “TSA(without NAD+) / Primary screening (TSA) / delta Tm (K)” is about -0.07, and the highest 2% start at about 0.37. Some of the results follow.

The chains behind the UniProt entries cited, without tags or fusion partners. Residues count along the entry.
UniProt Q96EB6, 2-747 limits assumed: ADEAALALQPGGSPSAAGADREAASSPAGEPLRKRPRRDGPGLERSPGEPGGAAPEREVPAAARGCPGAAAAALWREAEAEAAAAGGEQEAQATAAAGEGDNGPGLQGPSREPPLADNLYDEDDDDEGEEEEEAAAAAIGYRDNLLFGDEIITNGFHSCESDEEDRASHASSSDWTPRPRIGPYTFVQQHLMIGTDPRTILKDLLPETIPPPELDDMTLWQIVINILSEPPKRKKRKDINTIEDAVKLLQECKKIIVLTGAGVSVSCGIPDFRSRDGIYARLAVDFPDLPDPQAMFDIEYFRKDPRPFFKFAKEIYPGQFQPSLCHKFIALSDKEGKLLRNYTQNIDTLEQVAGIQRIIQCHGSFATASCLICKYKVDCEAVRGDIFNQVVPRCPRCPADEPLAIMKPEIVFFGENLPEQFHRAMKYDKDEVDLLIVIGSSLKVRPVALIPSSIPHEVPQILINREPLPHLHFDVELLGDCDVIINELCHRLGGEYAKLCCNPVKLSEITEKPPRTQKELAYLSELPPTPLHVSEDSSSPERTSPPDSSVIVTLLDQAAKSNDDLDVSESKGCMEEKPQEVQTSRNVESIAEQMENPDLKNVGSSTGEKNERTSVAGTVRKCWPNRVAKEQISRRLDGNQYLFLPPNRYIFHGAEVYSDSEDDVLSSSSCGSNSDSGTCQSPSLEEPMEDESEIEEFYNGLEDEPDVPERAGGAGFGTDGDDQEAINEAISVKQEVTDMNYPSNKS

The compounds below were run against NAD-dependent deacetylase Sirtuin 1 (human, UniProt Q96EB6) (assay: primary screen, delta tm). Conditions: 10 µM.
Parameters: single well (n = 1)
Procedure, shortened: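 Thermal shift of Sirtuin 1 measured without NAD+, compound at 10 µM (n = 1); value is ΔTm, with hits defined as ΔTm > 0.45 K or < −1.5 K. Hits retested at 5, 10, 20 µM (n = 4) and counterscreened on bovine carbonic anhydrase and ABL1 SH2 domain.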

Compound	TSA(without NAD+) / Primary screening (TSA) / delta Tm (K)
COc1ccc(N(Cc2ccc(C(N)=O)cc2)Cc2ccc(C(N)=O)cc2)cc1	0.02 K
CS(=O)(=O)NN	-0.02 K
Cc1nn(-c2ccc(F)cc2)c(C)c1CNCc1ccccc1	-0.13 K
NC1CCCCC1N (stereo not drawn)	-0.02 K
CN(CC(=O)Nc1ccccc1Cl)C(=O)CNc1cccc(OC(F)(F)F)c1	0.08 K
CCNCCO	-0.13 K
O=C(CN1CCN(C(=O)c2ccccc2C(=O)c2ccccc2)CC1)Nc1ccccc1Cl	0.02 K
COc1cc(CN(C)C(=O)Cn2c(=O)oc3ccccc32)ccc1OCc1ccccc1	0.03 K
CC1CCN(c2ccc(C(=O)Nc3ncc(C(N)=O)s3)cc2[N+](=O)[O-])CC1	0.16 K
Cn1c(NCc2cccnc2)c(C#N)c(=O)n(C)c1=O	0.02 K
Cc1noc(C)c1COc1ccccc1C(=O)NCCc1cccnc1	-0.12 K
COC(=O)C1=C(C)OC(CSc2nnc(CCC3CCCC3)[nH]2)C1 (stereo not drawn)	-0.11 K
CCCN(Cc1nnc(-c2ccccc2Cl)o1)C(=O)c1cccc(S(=O)(=O)N(C)c2ccc(C)cc2)c1	-0.13 K
CCSC1CCC(NC(=O)Cc2cnc3ccccc3c2)C1 (stereo not drawn)	-0.24 K
Cc1ccc2c(c1)nc(-c1cnc(N3CCCC3)nc1)n2C	-0.05 K
O=C(NO)c1cccc(C(F)(F)F)c1	-0.13 K
Cc1ccc(Nc2nc(CSc3nnc(NCc4ccco4)s3)cs2)cc1	-0.17 K
NC(c1ccccc1)c1ccc(Cl)cc1 (stereo not drawn)	-0.18 K
CC(=O)c1ccccc1NC(=O)c1cc(F)c(F)c(F)c1F	-0.24 K
CCN(CC(=O)Nc1ccc(OC)cc1)C(C)C(=O)Nc1ccc(C(N)=O)cc1 (stereo not drawn)	0.08 K
CNC(=O)CS	-0.18 K
Cc1nc(N2CCC(NC(N)=O)CC2)c2c3c(sc2n1)CCCC3	-0.03 K
Cc1nc(N2CCC(C(N)=O)CC2)c2cc(-c3ccccc3)sc2n1	-0.21 K
CC1CC(C(N)=O)c2ccccc2N1Cc1nc(-c2cccc(C(F)(F)F)c2)no1 (stereo not drawn)	-0.22 K

Compound	TSA(without NAD+) / Primary screening (TSA) / delta Tm (K)
Cn1c2ccccc2c2cc(S(=O)(=O)NCc3cccc(NC(=O)C4CC4)c3)ccc21	-0.03 K
O=C(Nc1ccccc1)C1CCN(c2ncnc3scc(-c4ccc(F)cc4)c23)CC1	-0.02 K
CC12CCC(=O)N1C(C(=O)O)Cc1c2[nH]c2ccccc12 (stereo not drawn)	0.12 K
Cc1ccccc1-c1nnc(Nc2cccc(S(=O)(=O)N(C)c3ccccc3)c2)o1	-0.13 K
O=C(O)C(O)CS(=O)(=O)O (stereo not drawn)	-0.28 K
CC(C)(C)c1nc(CN2CCN(c3ncnc4c3oc3ccccc34)CC2)no1	-0.18 K
O=C(c1cc2ccccc2oc1=O)N1CCC(c2ccc(O)cc2)CC1	-0.37 K
Brc1ccc2[nH]c3c(c2c1)CCCCCC3	0.19 K
CN(c1ccc(OCCCC(C)(C)C#N)cc1)S(=O)(=O)c1ccc(Cl)cc1	0.07 K
O=[N+]([O-])c1cnn(-c2ncnc3ccsc23)c1	-0.14 K
CCCOc1c(Cl)cc(/C=C/C(=O)Nc2c(C(N)=O)n[nH]c2C)cc1OC	-0.04 K
CC(OC(=O)C1=CN2CCS(=O)(=O)N=C2C=C1)C(=O)Nc1ccc(Oc2ccccc2)cc1 (stereo not drawn)	0.02 K
Cc1nc(C#N)c(C#N)n1Cc1cnn(-c2ccccc2)c1	-0.08 K
O=C(CCCn1c(=O)oc2ccccc21)Nc1ccc(N2CCN(Cc3ccccc3)CC2)cc1	0.02 K
CCCn1c2c(c(=O)[nH]c1=O)C(=O)C(C)N2 (stereo not drawn)	-0.05 K
FC(F)(F)c1nnc2ccc(NC3CC3)nn12	-0.18 K
Cc1ccc(C(=O)Nc2nc3ccc(NS(=O)(=O)c4ccc5c(c4)CCC(=O)N5)cc3s2)s1	0.66 K
CC1CC(N(C)CCCOc2cccc(S(C)(=O)=O)c2)C(=O)O1 (stereo not drawn)	-0.11 K
O=C1/C(=C/c2ccc(OC(F)F)cc2OC(F)F)Oc2cc(O)ccc21	0.16 K
Cc1n[nH]c(=O)c(C(=O)NNC(=O)CC23CC4CC(CC(C4)C2)C3)c1C	0.35 K
Cc1nc(N2CCN(c3cccc(C(F)(F)F)c3)CC2)c2c3c(sc2n1)CCC3	0.16 K
Cc1nc(N2CCC(c3nnc(N(C)C)[nH]3)CC2)c2c3c(sc2n1)CCCC3	-0.14 K
Cn1c(-c2ccccc2)c(C(=O)CC#N)c2ccccc21	-0.08 K
COc1ccc(NC(=O)COC(=O)/C=C/c2cc(OC)c(OC)c(S(=O)(=O)N3CCc4ccccc43)c2)cc1S(=O)(=O)N1CCCCC1	0.02 K

Compound	TSA(without NAD+) / Primary screening (TSA) / delta Tm (K)
O=C1CCCN1C(=O)Cn1cnc2cc(Cl)ccc2c1=O	-0.11 K
Cc1ccc2[nH]c(SCC(=O)N3CCCC(C(N)=O)C3)nc2c1 (stereo not drawn)	-0.18 K
CN(c1ccc(CNC(=O)c2cc[n+]([O-])cc2)cc1)C1CCCCC1	-0.07 K
NC(=O)c1cc(NC(=O)CN2CCCC2c2cccs2)cc(C(N)=O)c1 (stereo not drawn)	-0.02 K
Cc1ccc2[nH]c3c(c2c1)CC(N1CC(CN)CC1C)CC3 (stereo not drawn)	-0.12 K
Cc1onc(-c2ccccc2)c1C(=O)NC1CCCc2ccccc21 (stereo not drawn)	0.12 K
O=C(NCc1cccc(C(F)(F)F)c1)c1sc2ccccc2c1Cl	-0.12 K
Cc1nc(CN2CCCN(Cc3ccc(C(N)=O)cc3)CC2)no1	0.09 K
CCCOc1ccc(C(=O)C2=C(O)C(=O)N(CCN3CCOCC3)C2c2cccs2)cc1 (stereo not drawn)	-0.14 K
O=C1NC2(CCc3ccccc3C2)C(=O)N1Cc1nnc(-c2ccc(Cl)cc2)o1 (stereo not drawn)	-0.03 K
COc1cc(C(=O)Nc2ncc(Cc3cccc(C)c3)s2)ccc1OCC(=O)N1CCOCC1	-0.23 K
Cc1cnc(C(=O)N2CCCC2C(=O)Nc2ccccc2)cn1 (stereo not drawn)	-0.13 K
CCN1CCN(c2ccc(NC(=O)NC(C)CCc3ccc(O)cc3)c(C)c2)CC1 (stereo not drawn)	-0.07 K
O=C1/C(=C/NNC(=O)C23CC4CC(CC(C4)C2)C3)c2ccccc2C(=O)N1Cc1ccccc1	0.46 K
COC(=O)C[C@@H](C)OC(=O)c1cc(F)ccc1F	-0.15 K
COc1ccccc1NS(=O)(=O)c1cccc(NC(=O)Cn2[nH]c(=O)c3ccccc3c2=O)c1	0.06 K
C=CCC(C)N (stereo not drawn)	-0.14 K
Cc1ccc2c(COC(=O)c3cccc(S(=O)(=O)N(C)c4ccccc4)c3)cc(=O)oc2c1C	-0.02 K
Cc1sc2nc(-c3cccs3)nc(N3CCC(C(N)=O)CC3)c2c1C	0.58 K
NCC(CN)(CO)CO	0.03 K
Cc1[nH]ccc1C(=O)N(C)C1CC2CCC(C1)N2C(=O)OC(C)(C)C (stereo not drawn)	-0.22 K
C=CCOc1cccc(C2C(C(=O)c3ccco3)=C(O)C(=O)N2CCCN2CCOCC2)c1 (stereo not drawn)	-0.08 K
Cc1ccc(C(=Nc2c(C)cc(C)cc2C)c2ccc(C)cc2)cc1	-0.04 K
Cc1csc2c(N3CCC4CCC(C3)N4C)ncnc12 (stereo not drawn)	0.03 K

Compound	TSA(without NAD+) / Primary screening (TSA) / delta Tm (K)
C=CCN(CC=C)C(CNc1ccc2nnnn2n1)C(C)C (stereo not drawn)	-0.33 K
O=C(c1n[nH]c2c1CCC2)N(CCc1ccccc1)Cc1ccncc1	0.06 K
O=C(Nc1cccc(S(=O)(=O)NCc2ccco2)c1)c1cc(-c2ccccc2)nc2ccccc12	0.15 K
Cc1ccc(Cc2cnc(NC(=O)CC(c3ccccc3)c3ccccc3)s2)cc1	0.03 K
O=C(Nc1cccc(S(=O)(=O)NCc2ccco2)c1)C1CCN(C(=O)Nc2ccccc2)CC1	0.02 K
CC1CCN(C(=O)C23CC4CC(C2)CC(c2ccccc2)(C4)C3)CC1	-0.13 K
O=C1NC(C(=O)O)=CC(c2ccccc2C(F)(F)F)N1 (stereo not drawn)	-0.27 K
COC(C)[C@@H](C)N (stereo partly drawn)	-0.15 K
NC(=O)C1CCN(c2ncnc3cc(-c4ccc(Br)cc4)sc23)CC1	-0.03 K
Cc1ccc(S(=O)(=O)N(C)c2ccc(C(=O)NCCCN3CCC(C(N)=O)CC3)cc2)cc1	-0.31 K
Brc1cccc(-c2nc(CSc3nnc(NCc4ccco4)s3)cs2)c1	0.08 K
CC1CN=C(Nc2ccc(Cl)c(Cl)c2)S1 (stereo not drawn)	-0.08 K
NC(=O)C1CCN(c2ncnc3c2c(-c2ccccc2)cn3-c2ccc(Cl)cc2)CC1	-0.13 K
O=C(Nc1cc(S(=O)(=O)N2CCOCC2)ccc1O)C1=COCCO1	-0.32 K
O=C(Nc1cccc(S(=O)(=O)N2CCOCC2)c1)c1ccccc1Cc1ccccc1	-0.13 K
Cc1ncc(CN2CCC(Nc3ccc4nnnn4n3)C(C)C2)s1 (stereo not drawn)	0.12 K
Cc1ccc(C(C)(C)C)cc1SCC(=O)Nc1cc(C(N)=O)cc(C(N)=O)c1	0.19 K
OCCNc1ccc2nnc(C(F)(F)F)n2n1	-0.13 K
CC(=O)c1c[nH]c(C(=O)NCCc2ccc(-c3csc(C)n3)s2)c1	-0.24 K
NC(=O)NC(CC(=O)OCC(=O)NC12CC3CC(CC(C3)C1)C2)c1cccc(Oc2ccccc2)c1 (stereo not drawn)	-0.04 K
COc1ccc2c(COC(=O)c3ccc(=O)n(Cc4ccccc4)n3)cc(=O)oc2c1	0.06 K

In the list so far, 5 contain an aryl thioether with sulfur outside any ring.
Compound	TSA(without NAD+) / Primary screening (TSA) / delta Tm (K)
COC(=O)C1=C(C)OC(CSc2nnc(CCC3CCCC3)[nH]2)C1 (stereo not drawn)	-0.11 K
Cc1ccc(Nc2nc(CSc3nnc(NCc4ccco4)s3)cs2)cc1	-0.17 K
Cc1ccc2[nH]c(SCC(=O)N3CCCC(C(N)=O)C3)nc2c1 (stereo not drawn)	-0.18 K
Brc1cccc(-c2nc(CSc3nnc(NCc4ccco4)s3)cs2)c1	0.08 K
Cc1ccc(C(C)(C)C)cc1SCC(=O)Nc1cc(C(N)=O)cc(C(N)=O)c1	0.19 K
